At least one structure is not confirmed: it was looked up by name or label, or the drawing left a doubt.
Legend:
Format in all cases: cell-based
IGF1 = assay: Real-time PCR mRNA expression in mouse myoblasts; details: dexamethasone-treated control cells (Dexa) vs normal cells (Basal)
Description: (§1) Mouse myoblast cell line (C2C12 cells) was purchased from ATCC (Manassas, Va., USA) and used. The purchased cell line was incubated in an incubator at 37° C., 5% CO2 using 10% fetal bovine serum medium (Gibco-BRL) and used for experiments. When the cell line reached a confluency of about 80%, the cells were differentiated into myotubes using 2% horse serum medium (Gibco-BRL). In order to identify muscle-potentiating efficacy, treatment with 100 μM azelaic acid (CAS Number 123-99-9, Sigma) was performed for two days from the day when differentiation began, and a control was treated with 100 μM dimethyl sulfoxide (DMSO; Sigma). In order to identify muscle loss-inhibitory efficacy, combined treatment with 50 μM dexamethasone (dexa; Sigma) and 100 μM azelaic acid (CAS Number 123-99-9, Sigma) was performed for two days from the 4th day of differentiation.
(§2) 334 μl of Trizol solution was added per 1×10^7 cells of mouse myoblasts, and grinding was performed. Then, the resultant was centrifuged at 4° C. and 12,000×g for 10 minutes. The supernatant was transferred to a new tube. Then, 67 μl of chloroform was added thereto and vortexing was performed. Again, the supernatant was transferred to a new tube, and isopropanol was added so that a ratio of the supernatant to isopropanol was 1:1. After performing vigorous shaking 10 times, the tube was allowed to stand at room temperature for 15 minutes, and centrifuged at 12,000×g and 4° C. for 10 minutes.

MuRF1 = assay: Real-time PCR mRNA expression in mouse myoblasts; details: dexamethasone-treated control cells (Dexa) vs normal cells (Basal)
Description: as §1, §2

myostatin = assay: Real-time PCR mRNA expression in mouse myoblasts; details: dexamethasone-treated control cells (Dexa) vs normal cells (Basal)
Description: as §1, §2

MAFbx/Atrogin1 = assay: Real-time PCR mRNA expression in mouse myoblasts; details: dexamethasone-treated control cells (Dexa) vs normal cells (Basal)
Description: as §1, §2

[1] = tested on: Mouse myoblast cell line (C2C12 cells); assay: Myotube length in dexamethasone-treated mouse myoblasts (muscle loss-inhibitory efficacy), Wright-Giemsa staining; details: 50 μM dexamethasone for two days from the 4th day of differentiation
Description: Mouse myoblast cell line (C2C12 cells) was purchased from ATCC (Manassas, Va., USA) and used. The purchased cell line was incubated in an incubator at 37° C., 5% CO2 using 10% fetal bovine serum medium (Gibco-BRL) and used for experiments. […] In order to identify muscle-potentiating efficacy, treatment with 100 μM azelaic acid (CAS Number 123-99-9, Sigma) was performed for two days from the day when differentiation began, and a control was treated with 100 μM dimethyl sulfoxide (DMSO; Sigma). […] Sigma) and 100 μM azelaic acid (CAS Number 123-99-9, Sigma) was performed for two days from the 4th day of differentiation. The cells were washed twice with phosphate buffered saline (PBS), and then fixed for 10 minutes with 100% methanol. […] Co., Ltd., Seoul, South Korea) that specifically stains myotubes. Stained myotubes were photographed at ×40 magnification using a fluorescence microscope (IX 71, Olympus) and analyzed using Image J software (USA). Six sections of each well were randomly selected and micrographed. Lengths of at least 100 myotubes from each well were analyzed (3 repetitions/group).

p-p70S6K1 = assay: Western blotting in mouse myoblasts; details: dexamethasone-treated control cells (Dexa) vs normal cells (Basal)
Description: as §1, with “In order to identify muscle loss-inhibitory efficacy, combined treatment with 50 μM dexamethasone (dexa; Sigma) and 100 μM azelaic acid (CAS Number 123-99-9, Sigma) was performed for two days from the 4th day of differentiation.” left out
(§3) In order to perform Western blotting in cells, to each well from which the medium was removed was added a lysis buffer that contains 500 μL of 100 mM Tris-HCl, pH 7.4, 5 mM EDTA, 50 mM sodium pyrophosphate, 50 mM NaF, 100 mM orthovanadate, 1% Triton X-100, 1 mM phenylmethanesulfonyl fluoride, 2 μg/mL aprotinin, 1 μg/mL pepstatin A, and 1 μg/mL leupeptin, and the cells were lysed to obtain a lysate. […] Then, the middle layer was taken and proteins were quantified according to the Bradford method (Bio-Rad). 40 μg of the quantified proteins were electrophoresed on SDS polyacrylamide gel and then transferred to nitrocellulose membranes (Amersham, Buckinghamshire, UK).

p-4E-BP1 = assay: Western blotting in mouse myoblasts; details: dexamethasone-treated control cells (Dexa) vs normal cells (Basal)
Description: as §1, with “In order to identify muscle loss-inhibitory efficacy, combined treatment with 50 μM dexamethasone (dexa; Sigma) and 100 μM azelaic acid (CAS Number 123-99-9, Sigma) was performed for two days from the 4th day of differentiation.” left out
as §3

Question: Which “expression of IGF1 gene” value (IGF1) does the source give for C[C@@H]1C[C@H]2[C@@H]3CCC4=CC(=O)C=C[C@]4(C)[C@@]3(F)[C@@H](O)C[C@]2(C)[C@@]1(O)C(=O)CO [dexamethasone] here?
Answer: Its value is “decreased”.

Question: And the “expression of MuRF1 gene” value (MuRF1)?
Answer: The value was “significantly increased”.

Question: And the “expression of myostatin gene” value (myostatin)?
Answer: Its value is “significantly increased”.

Question: What about the “expression of MaFbx/Atrogin1 gene” value (MAFbx/Atrogin1) of the same molecule?
Answer: Its value is “significantly increased”.

Question: What about the “change in myotube length” value [1] of the same molecule?
Answer: The value was “significant decrease”.

Question: And the “amount of p-p70S6K1 protein” value (p-p70S6K1)?
Answer: Its value is “significantly decreased”.

Question: What about the “amount of p-4E-BP1 protein” value (p-4E-BP1) of the same molecule?
Answer: The value was “significantly decreased”.

Reference: patent publication US20200121627A1, “COMPOSITION COMPRISING AZELAIC ACID OR AS ACTIVE INGREDIENTS FOR MUSCLE STRENGTHENING, DEVELOPMENT, DIFFERENTIATION, REGENERATION OR INHIBITING MUSCLE ATROPHY” (priority 2018, published 2020)
